Measurements reported in article PMC7407996.
No constants are given. Whether binding was seen depends on the method and setting. Binding seen in cells or lysates may run through a third protein. Some binding calls cover weakened binding; strength is not graded here.

The chains behind the UniProt entries cited, without tags or fusion partners.
UniProt Q01094: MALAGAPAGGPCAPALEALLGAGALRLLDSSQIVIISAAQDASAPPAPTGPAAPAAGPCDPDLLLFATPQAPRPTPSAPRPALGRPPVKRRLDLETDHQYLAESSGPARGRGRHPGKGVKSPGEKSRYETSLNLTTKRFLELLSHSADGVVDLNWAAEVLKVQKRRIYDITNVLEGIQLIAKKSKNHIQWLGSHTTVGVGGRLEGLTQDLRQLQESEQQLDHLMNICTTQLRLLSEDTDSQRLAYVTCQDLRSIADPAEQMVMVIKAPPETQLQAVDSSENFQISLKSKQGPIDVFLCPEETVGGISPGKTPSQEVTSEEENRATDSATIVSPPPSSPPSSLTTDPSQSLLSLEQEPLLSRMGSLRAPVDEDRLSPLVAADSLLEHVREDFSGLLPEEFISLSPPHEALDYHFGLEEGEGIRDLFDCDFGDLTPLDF
UniProt O15047: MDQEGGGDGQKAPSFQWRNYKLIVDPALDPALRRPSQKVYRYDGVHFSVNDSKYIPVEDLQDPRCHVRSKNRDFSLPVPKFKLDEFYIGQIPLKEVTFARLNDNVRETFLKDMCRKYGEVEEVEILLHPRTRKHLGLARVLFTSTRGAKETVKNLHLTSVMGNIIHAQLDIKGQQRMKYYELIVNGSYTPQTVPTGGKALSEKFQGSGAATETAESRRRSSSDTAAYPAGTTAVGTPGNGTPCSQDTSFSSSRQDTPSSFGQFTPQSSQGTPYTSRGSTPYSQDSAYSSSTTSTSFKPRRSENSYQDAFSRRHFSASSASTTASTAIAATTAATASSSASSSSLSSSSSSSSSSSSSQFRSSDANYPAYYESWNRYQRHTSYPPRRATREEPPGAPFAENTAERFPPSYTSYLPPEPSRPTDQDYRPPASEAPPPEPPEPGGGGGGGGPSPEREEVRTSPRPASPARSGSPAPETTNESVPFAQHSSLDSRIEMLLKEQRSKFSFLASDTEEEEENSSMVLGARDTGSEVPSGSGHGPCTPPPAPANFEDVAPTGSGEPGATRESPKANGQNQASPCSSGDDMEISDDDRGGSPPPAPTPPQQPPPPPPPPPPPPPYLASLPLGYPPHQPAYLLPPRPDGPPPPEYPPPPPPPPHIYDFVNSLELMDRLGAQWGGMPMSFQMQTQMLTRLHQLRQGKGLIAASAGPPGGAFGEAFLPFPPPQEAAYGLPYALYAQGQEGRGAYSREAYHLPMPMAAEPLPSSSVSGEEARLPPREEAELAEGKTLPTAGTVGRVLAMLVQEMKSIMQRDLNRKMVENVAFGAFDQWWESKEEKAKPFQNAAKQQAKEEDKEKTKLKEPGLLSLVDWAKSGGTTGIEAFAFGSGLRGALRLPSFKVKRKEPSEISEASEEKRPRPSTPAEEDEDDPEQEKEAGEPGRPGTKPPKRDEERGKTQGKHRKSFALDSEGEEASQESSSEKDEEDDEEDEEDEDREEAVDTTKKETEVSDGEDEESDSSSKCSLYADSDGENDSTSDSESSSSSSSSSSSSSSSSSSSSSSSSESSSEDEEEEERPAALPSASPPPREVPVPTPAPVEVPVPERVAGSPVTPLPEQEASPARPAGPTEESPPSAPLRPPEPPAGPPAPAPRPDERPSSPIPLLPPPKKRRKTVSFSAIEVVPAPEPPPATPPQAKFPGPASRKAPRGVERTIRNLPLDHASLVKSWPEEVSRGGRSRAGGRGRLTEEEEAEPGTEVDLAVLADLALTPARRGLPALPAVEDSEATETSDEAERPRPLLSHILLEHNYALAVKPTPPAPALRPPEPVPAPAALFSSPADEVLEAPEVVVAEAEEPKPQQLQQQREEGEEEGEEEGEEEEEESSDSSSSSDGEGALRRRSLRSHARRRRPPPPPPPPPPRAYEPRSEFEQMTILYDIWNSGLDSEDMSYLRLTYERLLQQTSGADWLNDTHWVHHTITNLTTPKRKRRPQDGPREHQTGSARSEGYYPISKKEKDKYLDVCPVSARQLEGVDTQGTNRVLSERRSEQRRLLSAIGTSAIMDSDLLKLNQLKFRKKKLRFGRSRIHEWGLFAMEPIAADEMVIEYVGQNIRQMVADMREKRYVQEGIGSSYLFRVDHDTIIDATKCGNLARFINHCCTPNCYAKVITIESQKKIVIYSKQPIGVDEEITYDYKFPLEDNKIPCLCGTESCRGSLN

How the values were obtained:
[1] = target: endogenous E2F1 (human (endogenous in LNCaP)) (UniProt Q01094); assay: co-IP; endogenous proteins in LNCaP cells; immunoprecipitation with E2F1 antibody, immunoblot for SETD1A
[2] = target: HA (hemagglutinin)-tagged E2F1 (UniProt Q01094); assay: co-IP; HA-E2F1 and flag-SETD1A co-expressed in LNCaP cells, 72 h; RIPA extract; immunoprecipitation with anti-HA antibody, immunoblot for SETD1A
[3] = target: HA (hemagglutinin)-tagged E2F1 (UniProt Q01094); assay: co-IP; HA-E2F1 and flag-SETD1A co-expressed in C4-2B cells; RIPA extract; co-immunoprecipitated SETD1A detected with anti-flag antibody

Substance	binding [1]	binding [2]	binding [3]
endogenous SETD1A (from UniProt O15047 1-1707)	binds		
flag-tagged SETD1A (from UniProt O15047 1-1707)		binds	binds
